Measurements: PMC11123929, “A Comparative Study and Prediction of the Ex Vivo Permeation of Six Vaginally Administered Drugs across Five Artificial Membranes and Vaginal Tissue” (Molecules, 2024)

Tests used:
in vitro = conditions: cow
Description: Ex vivo experiments were conducted on cow vaginal mucosa sourced from a local slaughterhouse. Tissues with an exposure area of 0.19 cm^2 were placed in a Franz diffusion cell with the epithelial mucosa side facing the donor compartment. In the donor compartment, 200 μL of API’s solution in VFS (pH 4.5) was added (37 °C ± 0.2 °C), while the acceptor was filled with 5 mL of PBS at pH 7.4 (constant stirring at 100 rpm).
Samples were centrifuged at 2000× g for 10 min, and supernatants were analyzed using HPLC as described in Section 4.1.
The procedure for extracting the drug from the tissue was as follows: after the experiment was completed, each tissue was carefully removed from the Franz cell and immersed in 5 mL of methanol. It was then sonicated for 30 min, followed by 10 min of vertexing, another 30 min in the sonicator, and 10 min of vertexing. Finally, the samples were centrifuged for 20 min at 5000× g, and the supernatant was collected for analysis.

[1] = Retention on reversed-phase C4 HPLC column as indication of tissue penetration; type: physicochemical; conditions: ACE C4 150 × 4.6 mm, MeOH-H2O 10:90, 0.5 mL/min, 40 °C
Description: Under the given conditions, it was assumed that the stationary phase simulates the tissue while the aqueous mobile phase represents the surrounding space. […] However, it should be clarified that under the present conditions, it was not possible to conduct a global assessment of the phenomenon because not all of the studied substances penetrated the tissue. However, this procedure could be used as an initial indication for the behaviors of potential drug candidates. […] The analysis was carried out under isocratic conditions with a flow rate of 0.5 mL/min and a mobile phase consisting of MeOH-H2O at 10:90 (v/v).

[2] = Franz diffusion cell in vitro permeability, hybrid PVDF-cellulose membrane; conditions: pH 7.4
Source text: (§1) There are many membranes available on the market that are grouped as cellulosic and polymeric. Taking into account those that are more convenient and economical, two synthetic membranes and their combinations were used. Synthetic PVDF (polyvinylidene difluoride) and cellulose acetate (Table S2) membranes were pre-treated according to the supplier’s instructions. Cellulose membranes were further treated to acquire their lipophilic properties. Thus, they were placed on a flat glass surface and completely coated with IPM (isopropyl myristate) solution. The cellulose membrane was allowed to incubate in the IPM solution for 30 min. […]
(§2) The in vitro permeability profile of each compound was evaluated using the Franz diffusion cell setup (PermeGear, Hellertown, PA, USA). […]
(§3) At specified intervals (t = 2, 3, 4, 6, and 8 h), 0.5 mL of the samples was taken from the receptor compartment and replaced with an equal volume of freshly prewarmed receptor medium. The concentration of each API was quantified using the appropriate HPLC method (Section 4.1) without sample pretreatment. […] Each sample was analyzed in triplicate, and its cumulative release over time was plotted (Figure 2). The steady-state flux (Jss) was determined by plotting the permeation of the API per unit area (μg/cm^2) against time (h) and calculating the slope of the linear portion of the resulting line. […]

[3] = Franz diffusion cell in vitro permeability, PVDF membrane; conditions: pH 7.4
Source text: as §1, §2, §3

[4] = Franz diffusion cell in vitro permeability, hybrid IPM-cellulose membrane; conditions: pH 7.4
Source text: as §1, §2, §3

CCN(CC)CC(=O)Nc1c(C)cccc1C [LIDO, lidocaine]
Papp at 8 h, 10 mg/mL (in vitro): 11.7 ×10⁻⁶ cm/s
Retention time (tr) in column C4 [1]: 5.94 min
Papp at 8 h [2]: 3.33 ×10⁻⁶ cm/s
Papp at 8 h [3]: 1.39 ×10⁻⁶ cm/s
Papp at 8 h [4]: 3.33 ×10⁻⁶ cm/s
